Data reported in the supplement of paper PMC10689618.
Counter-ions that a name gives are not always drawn. This is one part of the list. Repeats are few or missing, and single values can be far off.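 Primary human fetal astrocytes engulfed labelled rat cortical synaptosomes, measured as a red/green ratio corrected for calcein live-cell signal and scaled to the plate median. Toxicity meant calcein falling over 30%; decreased phagocytosis meant below 70% of median above 5 µM.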

Assays:
Details in all cases: 24 h
Human fetal astrocytes [1] = assay: loss of total cells relative to no-compound high-control median (toxicity); higher = more toxic (fewer cells)
Human fetal astrocytes [2] = assay: synaptosome phagocytosis (pHrodo/calcein intensity ratio) relative to plate median of data wells; higher = more phagocytosis
Human fetal astrocytes [3] = assay: loss of total cells relative to no-compound high-control median (toxicity); higher = more toxic (fewer cells); remark: listed apart in the source
Human fetal astrocytes [4] = assay: synaptosome phagocytosis (pHrodo/calcein intensity ratio) relative to plate median of data wells; higher = more phagocytosis; remark: listed apart in the source

SMILES | loss of total cells (Human fetal astrocytes [1]; 1.39 µM) [%] | loss of total cells (Human fetal astrocytes [1]; 2.78 µM) [%] | loss of total cells (Human fetal astrocytes [1]; 5.56 µM) [%] | loss of total cells (Human fetal astrocytes [1]; 11.11 µM) [%] | loss of total cells (Human fetal astrocytes [1]; 22.22 µM) [%] | synaptosome phagocytosis (Human fetal astrocytes [2]; 1.39 µM) [%] | synaptosome phagocytosis (Human fetal astrocytes [2]; 2.78 µM) [%] | synaptosome phagocytosis (Human fetal astrocytes [2]; 5.56 µM) [%] | synaptosome phagocytosis (Human fetal astrocytes [2]; 11.11 µM) [%] | synaptosome phagocytosis (Human fetal astrocytes [2]; 22.22 µM) [%] | loss of total cells (Human fetal astrocytes [3]; 1.39 µM) [%] | loss of total cells (Human fetal astrocytes [3]; 2.78 µM) [%] | loss of total cells (Human fetal astrocytes [3]; 5.56 µM) [%] | loss of total cells (Human fetal astrocytes [3]; 11.11 µM) [%] | loss of total cells (Human fetal astrocytes [3]; 22.22 µM) [%] | synaptosome phagocytosis (Human fetal astrocytes [4]; 1.39 µM) [%] | synaptosome phagocytosis (Human fetal astrocytes [4]; 2.78 µM) [%] | synaptosome phagocytosis (Human fetal astrocytes [4]; 5.56 µM) [%] | synaptosome phagocytosis (Human fetal astrocytes [4]; 11.11 µM) [%] | synaptosome phagocytosis (Human fetal astrocytes [4]; 22.22 µM) [%]
COC(=O)[C@H](Cc1ccccc1)NC(=O)[C@@H](N)CC(=O)O | 6.6 | -26.5 | 11.1 | -13.3 | 21.5 | 110 | 120 | 127 | 126 | 147 | – | – | – | – | – | – | – | – | – | –
C=CCSCC1Nc2cc(Cl)c(S(N)(=O)=O)cc2S(=O)(=O)N1 (stereo not given) | 15.7 | -25.4 | -6.3 | 8.9 | -22.2 | 107 | 142 | 97.8 | 117 | 96.8 | – | – | – | – | – | – | – | – | – | –
C[C@H]1COC2=C1C(=O)C(=O)c1c2ccc2c1CCCC2(C)C | -16.4 | -1.1 | -12.5 | 17.6 | 27.4 | 93 | 71.2 | 79 | 101 | 115 | – | – | – | – | – | – | – | – | – | –
CCC(C)n1ncn(-c2ccc(N3CCN(c4ccc(OCC5COC(Cn6cncn6)(c6ccc(Cl)cc6Cl)O5)cc4)CC3)cc2)c1=O (stereo not given) | -7.6 | 7.3 | 36.6 | -0.6 | 9.3 | 101 | 93.1 | 158 | 106 | 93.5 | – | – | – | – | – | – | – | – | – | –
CC(=O)N[C@@H](CC(C)C)C(=O)O | -5.4 | 1.1 | 2.2 | 9.6 | 9.1 | 89.3 | 86 | 97.6 | 104 | 58.6 | – | – | – | – | – | – | – | – | – | –
CC(Cc1cccc(C(F)(F)F)c1)NCCOC(=O)c1ccccc1 (stereo not given) | 9.7 | 22 | 8.7 | -13 | -2.3 | 109 | 93.2 | 65.7 | 112 | 98.1 | – | – | – | – | – | – | – | – | – | –
CC(=O)OCC(=O)[C@H]1CC[C@H]2[C@@H]3CCC4=CC(=O)CC[C@]4(C)[C@H]3CC[C@]12C | -15.8 | -7 | 2.1 | -25 | -4.5 | 107 | 96.6 | 107 | 129 | 108 | – | – | – | – | – | – | – | – | – | –
O=C([O-])c1ccccc1O.[Na+] | -2.1 | -18.6 | 2.1 | 17 | -19.8 | 110 | 101 | 102 | 130 | 86.1 | – | – | – | – | – | – | – | – | – | –
CN(C)CCCOc1nn(Cc2ccccc2)c2ccccc12 | -24.3 | 9.3 | -6.1 | 2.6 | -2.6 | 100 | 100 | 79 | 99.1 | 93.1 | – | – | – | – | – | – | – | – | – | –
N/C(=N\C(=O)c1nc(Cl)c(N)nc1N)NCc1ccccc1 [Benzamil hydrochloride] | – | – | – | – | – | – | – | – | – | – | -14.3 | 3.6 | -22.6 | -5.8 | 11.7 | 103 | 122 | 74.4 | 84.3 | 94.1
COc1c(C)c2c(c(O)c1C/C=C(\C)CCC(=O)O)C(=O)OC2 | 10.4 | -4.4 | -11.1 | 7.8 | -8.2 | 105 | 87.1 | 89.6 | 84.5 | 95.1 | – | – | – | – | – | – | – | – | – | –
CC(C)(C)NCC(O)c1ccc(O)c(CO)c1 (stereo not given) [Salbutamol] | 3.9 | -25.4 | -7.7 | -8.9 | 9.4 | 114 | 112 | 112 | 97.3 | 102 | – | – | – | – | – | – | – | – | – | –
COc1cc(OC)c(-c2c(OC)cc(OC)cc2OC)c(OC)c1 | -31.1 | -5.4 | -4.4 | 3.4 | 1.5 | 83.5 | 120 | 77.7 | 88.4 | 104 | – | – | – | – | – | – | – | – | – | –
CO[C@H]1C[C@H](O[C@H]2[C@H](C)[C@@H](O[C@@H]3O[C@H](C)C[C@H](N(C)C)[C@H]3O)[C@@H](C)C[C@@]3(CO3)C(=O)[C@H](C)[C@@H](O)[C@@H](C)[C@@H](C)OC(=O)[C@@H]2C)O[C@@H](C)[C@@H]1O | 0.9 | -23.4 | -17.4 | -6.1 | -19.1 | 100 | 108 | 134 | 127 | 128 | – | – | – | – | – | – | – | – | – | –
CCOc1ccc(C(=O)c2ccc(O)c(O)c2O)cc1 | -11.2 | -6.6 | 25.2 | 41.3 | 1.1 | 111 | 114 | 143 | 110 | 94.3 | – | – | – | – | – | – | – | – | – | –
CCCc1cc(C(N)=S)ccn1 | 12.6 | 29.2 | 18.8 | 13.8 | 12.9 | 114 | 90.2 | 81.2 | 127 | 140 | – | – | – | – | – | – | – | – | – | –
CCOC(=O)NNc1nncc2ccccc12 | 4.7 | 16.2 | 7.2 | 16.3 | 22.7 | 108 | 113 | 105 | 135 | 101 | – | – | – | – | – | – | – | – | – | –
COC(=O)C[C@H]1C(C)(C)C(=O)[C@@H]2CC3=C4CC(=O)O[C@@H](c5ccoc5)[C@]4(C)CC[C@@H]3[C@@]1(C)C2=O | -22.1 | 1.3 | 22.1 | 8.4 | -9.3 | 102 | 84.4 | 136 | 113 | 95.2 | – | – | – | – | – | – | – | – | – | –
COc1cc(OC)c2c(=O)cc(-c3ccccc3)oc2c1 | -13.9 | 6.1 | -11.7 | -6.8 | -5.9 | 110 | 77.1 | 106 | 75.8 | 95.3 | – | – | – | – | – | – | – | – | – | –
COc1ccc(C2C(=O)c3ccccc3C2=O)cc1 | 11.3 | -24.6 | 5.6 | -8.9 | -1.6 | 122 | 105 | 89.1 | 99 | 111 | – | – | – | – | – | – | – | – | – | –

Whole records as entered above. Order of values: loss of total cells (Human fetal astrocytes [1]; 1.39 µM) [%]	loss of total cells (Human fetal astrocytes [1]; 2.78 µM) [%]	loss of total cells (Human fetal astrocytes [1]; 5.56 µM) [%]	loss of total cells (Human fetal astrocytes [1]; 11.11 µM) [%]	loss of total cells (Human fetal astrocytes [1]; 22.22 µM) [%]	synaptosome phagocytosis (Human fetal astrocytes [2]; 1.39 µM) [%]	synaptosome phagocytosis (Human fetal astrocytes [2]; 2.78 µM) [%]	synaptosome phagocytosis (Human fetal astrocytes [2]; 5.56 µM) [%]	synaptosome phagocytosis (Human fetal astrocytes [2]; 11.11 µM) [%]	synaptosome phagocytosis (Human fetal astrocytes [2]; 22.22 µM) [%]	loss of total cells (Human fetal astrocytes [3]; 1.39 µM) [%]	loss of total cells (Human fetal astrocytes [3]; 2.78 µM) [%]	loss of total cells (Human fetal astrocytes [3]; 5.56 µM) [%]	loss of total cells (Human fetal astrocytes [3]; 11.11 µM) [%]	loss of total cells (Human fetal astrocytes [3]; 22.22 µM) [%]	synaptosome phagocytosis (Human fetal astrocytes [4]; 1.39 µM) [%]	synaptosome phagocytosis (Human fetal astrocytes [4]; 2.78 µM) [%]	synaptosome phagocytosis (Human fetal astrocytes [4]; 5.56 µM) [%]	synaptosome phagocytosis (Human fetal astrocytes [4]; 11.11 µM) [%]	synaptosome phagocytosis (Human fetal astrocytes [4]; 22.22 µM) [%]
CC(=O)N[C@@H](CC(C)C)C(=O)O is listed as -5.4	1.1	2.2	9.6	9.1	89.3	86	97.6	104	58.6	–	–	–	–	–	–	–	–	–	–
C[C@H]1COC2=C1C(=O)C(=O)c1c2ccc2c1CCCC2(C)C is listed as -16.4	-1.1	-12.5	17.6	27.4	93	71.2	79	101	115	–	–	–	–	–	–	–	–	–	–
